Results: paper doi:10.1101/2023.02.28.530426
No constants are given. Whether binding was seen depends on the method and setting. Binding seen in cells or lysates may run through a third protein. Some results given as binding are weak or reduced against the parent protein; the word gives no strength. Sequences can lack the tags named with a protein.

Sequences of proteins named here, by UniProt entry; tags and fusion partners are left off. A change or cut given only in a name is not applied to a line headed by its entry. Residues count along the entry.
UniProt P40073, 146-367, stated change not applied: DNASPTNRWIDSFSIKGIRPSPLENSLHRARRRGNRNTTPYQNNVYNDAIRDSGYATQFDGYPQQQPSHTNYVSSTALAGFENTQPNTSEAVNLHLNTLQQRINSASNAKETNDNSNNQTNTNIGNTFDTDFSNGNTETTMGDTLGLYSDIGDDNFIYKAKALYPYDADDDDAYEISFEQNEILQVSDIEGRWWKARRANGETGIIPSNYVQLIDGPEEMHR

Molecular target: Sho1p cytosolic C-terminal domain, His6 fusion (Sho1p Δ1-145-His6) (S. cerevisiae) (UniProt P40073)
Assay: pull-down

B1: Bem1p-12XMYC (protein, UniProt P29366 1-551)
chain: MLKNFKLSKRDSNGSKGRITSADISTPSHDNGSVIKHIKTVPVRYLSSSSTPVKSQRDSSPKNRHNSKDITSPEKVIKAKYSYQAQTSKELSFMEGEFFYVSGDEKDWYKASNPSTGKEGVVPKTYFEVFDRTKPSSVNGSNSSSRKVTNDSLNMGSLYAIVLYDFKAEKADELTTYVGENLFICAHHNCEWFIAKPIGRLGGPGLVPVGFVSIIDIATGYATGNDVIEDIKSVNLPTVQEWKSNIARYKASNISLGSVEQQQQQSITKPQNKSAKLVDGELLVKASVESFGLEDEKYWFLVCCELSNGKTRQLKRYYQDFYDLQVQLLDAFPAEAGKLRDAGGQWSKRIMPYIPGPVPYVTNSITKKRKEDLNIYVADLVNLPDYISRSEMVHSLFVVLNNGFDREFERDENQNNIKTLQENDTATFATASQTSNFASTNQDNTLTGEDLKLNKKLSDLSLSGSKQAPAQSTSGLKTTKIKFYYKDDIFALMLKGDTTYKELRSKIAPRIDTDNFKLQTKLFDGSGEEIKTDSQVSNIIQAKLKISVHDI
With B1 the binding was “binds”.

B2: Pbs2p-HA (protein, UniProt P08018 1-668)
chain: MEDKFANLSLHEKTGKSSIQLNEQTGSDNGSAVKRTSSTSSHYNNINADLHARVKAFQEQRALKRSASVGSNQSEQDKGSSQSPKHIQQIVNKPLPPLPVAGSSKVSQRMSSQVVQASSKSTLKNVLDNQETQNITDVNINIDTTKITATTIGVNTGLPATDITPSVSNTASATHKAQLLNPNRRAPRRPLSTQHPTRPNVAPHKAPAIINTPKQSLSARRGLKLPPGGMSLKMPTKTAQQPQQFAPSPSNKKHIETLSNSKVVEGKRSNPGSLINGVQSTSTSSSTEGPHDTVGTTPRTGNSNNSSNSGSSGGGGLFANFSKYVDIKSGSLNFAGKLSLSSKGIDFSNGSSSRITLDELEFLDELGHGNYGNVSKVLHKPTNVIMATKEVRLELDEAKFRQILMELEVLHKCNSPYIVDFYGAFFIEGAVYMCMEYMDGGSLDKIYDESSEIGGIDEPQLAFIANAVIHGLKELKEQHNIIHRDVKPTNILCSANQGTVKLCDFGVSGNLVASLAKTNIGCQSYMAPERIKSLNPDRATYTVQSDIWSLGLSILEMALGRYPYPPETYDNIFSQLSAIVDGPPPRLPSDKFSSDAQDFVSLCLQKIPERRPTYAALTEHPWLVKYRNQDVHMSEYITERLERRNKILRERGENGLSKNVPALHMGGL
B2 was tested, and the binding was “binds”.
